This assay deals with T1, CASY-1 C-terminal (cytoplasmic tail of CASY-1), yeast two-hybrid construct (C. elegans) (UniProt G5ED46).
T1 sequence: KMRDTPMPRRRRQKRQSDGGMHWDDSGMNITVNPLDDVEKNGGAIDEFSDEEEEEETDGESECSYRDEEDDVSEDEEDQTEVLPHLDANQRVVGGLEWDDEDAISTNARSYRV
Nature of the assay: two-hybrid; yeast two-hybrid; CASY-1 C-terminal against UNC-104 domain constructs; spotting with and without selection; bait and prey not told.

Results are given in words; binding and its absence hold for the method and conditions named. A result given as binding can be weak or reduced; the word gives no strength.

With “UNC-104 motor domain (aa 1-356), yeast two-hybrid construct (C. elegans) (domain or fragment)”, the binding entry is listed as “binds weakly”.

On to “UNC-104 fork head domain FHA (aa 460-633), yeast two-hybrid construct (C. elegans) (domain or fragment)”, for which the binding entry is recorded as “binds weakly”.
